In patent publication EP1914307A2:
These are yes or no findings as the source states them, for the method shown. Binding can be weak; no strength is given.

Molecular target: TY145 subtilase (Bacillus sp. TY145)
Assay: X-ray crystal structure of the complex

binding: binds
B1: C12 inhibitor (protein, UniProt P01053 21-84, looked up)
chain: LKTEWPELVGKSVEEAKKVILQDKPEAQIIVLPVGTIVTMEYRIDRVRLFVDKLDNIAQVPRVG
